The experiment concerns the target Myc-ZBP1 expressed in THP-1 macrophages. Briefly: affinity purification with mass spectrometry; THP-1 macrophages transfected with vector control or Myc-ZBP1 for 48 h; lysate on anti-myc affinity columns, eluted with myc peptide; SDS-PAGE, silver stain, bands analysed by mass spectrometry.

Results are given in words; binding and its absence hold for the method and conditions named. In cells and extracts the contact can be indirect. A yes stands for co-enrichment or nearness to the bait. Other partners may have been found.

B1: TRIM34, endogenous in THP-1 macrophages (protein, UniProt Q9BYJ4 1-488)
chain: MASKILLNVQEEVTCPICLELLTEPLSLDCGHSLCRACITVSNKEAVTSMGGKSSCPVCGISYSFEHLQANQHLANIVERLKEVKLSPDNGKKRDLCDHHGEKLLLFCKEDRKVICWLCERSQEHRGHHTVLTEEVFKECQEKLQAVLKRLKKEEEEAEKLEADIREEKTSWKYQVQTERQRIQTEFDQLRSILNNEEQRELQRLEEEEKKTLDKFAEAEDELVQQKQLVRELISDVECRSQWSTMELLQDMSGIMKWSEIWRLKKPKMVSKKLKTVFHAPDLSRMLQMFRELTAVRCYWVDVTLNSVNLNLNLVLSEDQRQVISVPIWPFQCYNYGVLGSQYFSSGKHYWEVDVSKKTAWILGVYCRTYSRHMKYVVRRCANRQNLYTKYRPLFGYWVIGLQNKCKYGVFEESLSSDPEVLTLSMAVPPCRVGVFLDYEAGIVSFFNVTSHGSLIYKFSKCCFSQPVYPYFNPWNCPAPMTLCPPSS
Regarding B1, the binding result is listed as “binds”.

(Values after article PMC8867111.)
